{
  "source": "patent US20230183340A1",
  "molecular_target": "T1, mouse TREM2 (mouse) (UniProt Q99NH8)",
  "T1 sequence (looked up)": "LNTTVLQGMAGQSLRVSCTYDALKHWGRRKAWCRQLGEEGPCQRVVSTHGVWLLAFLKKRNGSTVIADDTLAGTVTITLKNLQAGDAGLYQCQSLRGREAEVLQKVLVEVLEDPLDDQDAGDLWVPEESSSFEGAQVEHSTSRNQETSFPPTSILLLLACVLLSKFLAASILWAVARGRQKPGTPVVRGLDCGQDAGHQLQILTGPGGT",
  "test": "flow cytometry on TREM2 transfected reporter cells, anti-mouse IgG-PE secondary",
  "note": "No constants are given. Whether binding was seen depends on the method and setting. Some entries that bind do so weakly or less than the wild type. Sequences can lack the tags named with a protein.",
  "data": [
    {"binder": "Recombinant Fc mutated (mouse IgG2a, LALAPG) anti-murine TREM2 antibody (clone 178) (antibody, V domains shown) VH: EVQLQQSGPELRRPGSSVKLSCKASGYSIIDYLMHWVKHRPGHGLEWIGWIDPENGETKYAQKFQRKATLTADTSSSTAYMQLSSLTSEDTATYFCARQQLRYVMDAWGQGGSVTVSS VL: DVQMTQSPYNLAASPGESVSINCKASKSISKYLAWYQQKPGKTNKLLIYDGSTLQSGIPSRFSGSGSGTDFTLTIRSLEPEDFGLYYCQQHNEYPLTFGSGTKLEIKR", "values": [
      {"measurement": "binding", "result": "binds"}
    ]}
  ]
}
